Test results reported in patent US11952582B2, “Herbicide-resistance gene and application thereof in plant breeding” (priority 2017, dated 2024).
Some entries share one result that the patent states for a list of compounds.

The chains behind the UniProt entries cited, without tags or fusion partners.
UniProt Q9I576, whole entry A156V/R282S/E349K: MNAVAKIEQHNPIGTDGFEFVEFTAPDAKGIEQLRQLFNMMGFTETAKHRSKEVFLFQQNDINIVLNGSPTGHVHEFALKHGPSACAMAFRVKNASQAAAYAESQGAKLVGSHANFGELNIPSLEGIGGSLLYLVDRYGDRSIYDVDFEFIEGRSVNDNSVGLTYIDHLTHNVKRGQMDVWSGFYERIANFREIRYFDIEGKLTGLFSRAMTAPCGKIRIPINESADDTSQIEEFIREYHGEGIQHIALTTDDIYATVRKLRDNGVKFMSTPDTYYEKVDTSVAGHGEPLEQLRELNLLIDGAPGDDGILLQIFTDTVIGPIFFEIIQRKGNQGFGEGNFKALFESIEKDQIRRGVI

Experiments:
[1] = test system: Arabidopsis WT (Col0), OE At, OE Pa, OE M3 lines; assay: Arabidopsis seed germination test on herbicide-containing 1/2 MS medium; type: in vivo, Arabidopsis thaliana; conditions: OE M3 (two lines), T3 seeds, 2 weeks
Experimental: In order to evaluate the resistance of different HPPD overexpression lines to herbicides, Arabidopsis seed germination tests were performed on media containing different concentrations of herbicides. T3 generation Arabidopsis seeds and Co10 (WT) seeds were performed steam surface sterilization (concentrated HCl: NaClO=1:5, v/v) for 3 h. Seeds of OE At (OE At #1, OE At #2), OE Pa (OE Pa #1, OE Pa #2), OE M3 (OE M3 #1, OE M3 #2) and Co10 (WT) were dibbled together in ^1/2 MS medium (0.5 x MS salt, 1% sucrose and 0.8% agar) in a 24-well plate, and the medium contained different concentrations (0, 31.25, 62.5, 125, 500 and 2000 nM) of mesotrione (Sigma Aldrich, USA) and sulcotrione (Sigma Aldrich, USA). Then, the plate dibbled seeds was placed in the dark at 4° C. for 3 d, and then transferred to a growth chamber at 22° C. (16 h light/8 h dark) for 2 weeks. Three biological replicates were performed per treatment per species. After 2 weeks, the test results were photographed.

[2] = target: PaHPPD-SDM (Pseudomonas aeruginosa, UniProt Q9I576, A156V/E349K/R282S); conditions: E. coli expressing PaHPPD-SDM

Row | Structure (SMILES) | concentration up to which seedlings grow normally (maximum tolerance concentration before germination) [1] | tolerance against the herbicide in microorganism [2]
1 | CS(=O)(=O)c1ccc(C(=O)C2C(=O)CCCC2=O)c([N+](=O)[O-])c1 [mesotrione] | up to 125 nM | –
2 | CS(=O)(=O)c1ccc(C(=O)C2C(=O)CCCC2=O)c(Cl)c1 [sulcotrione] | up to 125 nM | up to 60 μM
